The source of these data is publication PMC9488896 (ACS Chemical Biology, 2022).

The nature of the series: general procedure: Fmoc solid-phase peptide synthesis; Fmoc-Rink Amide AM resin (Iris Biotech, 0.74 mmol/g); HCTU/DIPEA. As to conditions: whole synthesis, scale of the general procedure 0.1 mmol; for final HPLC purity: analytical RP-HPLC, UV 214 and 280 nm.

“H3(1–7)K4Ac (ARTKQTA; K4 acetylated; C-terminal amide; UniProt P68431 2-8, looked up, fragment)”: the “final HPLC purity” value is 99% and the isolated yield worked out at 30%.

Consider “H3(6–12)K9Ac (TARKSTG; K9 acetylated; C-terminal amide; UniProt P68431 7-13, looked up, fragment)”, for which the “final HPLC purity” value was determined as 98% and the isolated yield was 27%.

For “H3(11–17)K14Ac (TGGKAPR; K14 acetylated; C-terminal amide; UniProt P68431 12-18, looked up, fragment)”, the “final HPLC purity” value is listed as 98% and the isolated yield amounted to 28%.

Consider “H3(23–29)K27Ac (KAARKSA; K27 acetylated; C-terminal amide; UniProt P68431 24-30, looked up, fragment)”, for which the “final HPLC purity” value turned out to be 99% and the isolated yield is 45%.

Turning to “H4(4–10)K8Ac (GKGGKGL; K8 acetylated; C-terminal amide; UniProt P62805 5-11, looked up, fragment)”, the “final HPLC purity” value is listed as 99% and the isolated yield stood at 25%.

Regarding “H4(9–15)K12Ac (GLGKGGA; K12 acetylated; C-terminal amide; UniProt P62805 10-16, looked up, fragment)”, the “final HPLC purity” value stood at 99% and the isolated yield was found to be 41%.

For the substance “H4(12–18)K16Ac (KGGAKRH; K16 acetylated; C-terminal amide; UniProt P62805 13-19, looked up, fragment)”, the “final HPLC purity” value stood at 99% and the isolated yield is on record as 31%.
